Our source for the binding values is article doi:10.1101/413948.

Experiment [1] has as its target T1, ATG9A (human (endogenous in HUVEC)) (UniProt Q7Z3C6).
T1 sequence: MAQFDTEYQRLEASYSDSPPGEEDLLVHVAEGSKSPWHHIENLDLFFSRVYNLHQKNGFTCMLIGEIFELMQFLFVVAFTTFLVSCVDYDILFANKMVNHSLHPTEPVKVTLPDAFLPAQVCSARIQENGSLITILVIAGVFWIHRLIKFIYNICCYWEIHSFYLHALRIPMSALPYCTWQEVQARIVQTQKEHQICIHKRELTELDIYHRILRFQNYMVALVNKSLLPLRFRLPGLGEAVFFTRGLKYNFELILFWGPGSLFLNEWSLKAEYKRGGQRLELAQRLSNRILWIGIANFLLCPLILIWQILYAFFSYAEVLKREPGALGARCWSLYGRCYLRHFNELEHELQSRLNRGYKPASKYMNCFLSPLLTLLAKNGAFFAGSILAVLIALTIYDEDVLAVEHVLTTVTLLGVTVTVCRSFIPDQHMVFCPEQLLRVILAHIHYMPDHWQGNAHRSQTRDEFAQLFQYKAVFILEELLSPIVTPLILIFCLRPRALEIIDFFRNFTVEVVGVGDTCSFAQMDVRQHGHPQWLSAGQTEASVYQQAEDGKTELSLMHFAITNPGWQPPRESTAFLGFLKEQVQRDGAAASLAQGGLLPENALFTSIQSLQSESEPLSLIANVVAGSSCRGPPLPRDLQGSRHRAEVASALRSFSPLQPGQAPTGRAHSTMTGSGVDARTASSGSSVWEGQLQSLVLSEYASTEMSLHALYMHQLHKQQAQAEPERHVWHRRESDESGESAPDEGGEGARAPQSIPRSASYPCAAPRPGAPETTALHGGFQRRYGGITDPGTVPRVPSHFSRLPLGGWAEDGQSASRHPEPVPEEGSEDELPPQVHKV
As to the kind of experiment: co-IP.

Experiment [2] concerns the target p62, also referred to as sequestosome 1 (SQSTM1) (human (endogenous in HUVEC)) (UniProt Q13501). As to the kind of experiment: co-IP.

These are yes or no findings as the source states them, for the method shown. In cells and extracts the contact can be indirect. Some binding calls cover weakened binding; strength is not graded here.

B1: hyaluronan synthase 2 (enzyme, UniProt Q92819 1-552)
chain: MHCERFLCILRIIGTTLFGVSLLLGITAAYIVGYQFIQTDNYYFSFGLYGAFLASHLIIQSLFAFLEHRKMKKSLETPIKLNKTVALCIAAYQEDPDYLRKCLQSVKRLTYPGIKVVMVIDGNSEDDLYMMDIFSEVMGRDKSATYIWKNNFHEKGPGETDESHKESSQHVTQLVLSNKSICIMQKWGGKREVMYTAFRALGRSVDYVQVCDSDTMLDPASSVEMVKVLEEDPMVGGVGGDVQILNKYDSWISFLSSVRYWMAFNIERACQSYFGCVQCISGPLGMYRNSLLHEFVEDWYNQEFMGNQCSFGDDRHLTNRVLSLGYATKYTARSKCLTETPIEYLRWLNQQTRWSKSYFREWLYNAMWFHKHHLWMTYEAIITGFFPFFLIATVIQLFYRGKIWNILLFLLTVQLVGLIKSSFASCLRGNIVMVFMSLYSVLYMSSLLPAKMFAIATINKAGWGTSGRKTIVVNFIGLIPVSVWFTILLGGVIFTIYKESKRPFSESKQTVLIVGTLLYACYWVMLLTLYVVLINKCGRRKKGQQYDMVLDV
As to B1, the binding entry was “binds” in experiment [1] and “no binding” in experiment [2].
